PubChem BioAssay AID1224830 | NIAID – 2016
Aim: 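Regulators of TLR4 signalling towards TNF-alpha in macrophage-like cells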 (primary screen). Cell system: human THP-1 monocytic leukaemia cells, TNF dual-luciferase reporter clone, PMA-differentiated to macrophage-like cells. Reagents: siRNA pool against human genes, 50 nM. Time to read-out: LPS for 4 h, given about 3 days after siRNA transfection. Challenge: bacterial LPS (TLR4 ligand), 10 ng/ml. Detection: 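Ratio of firefly to renilla light, scaled to the plate median and expressed as a robust z-score per replicate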. Scale: TNF reporter robust z-score: higher = stronger TNF reporter response to LPS. Call rule: 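a well is active when its z-score exceeds 2.8 or falls below -1.5; control wells carry no call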.
Shown is a random part of about 18,000 deposited reagents. In the full data, about 2,900 (16%) got an active call. 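Calls are made per well; low scores hint the gene aids the LPS response, high scores that it dampens it.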 Unmarked entries are inactive. Repeated entries: four replicate wells of each siRNA pool.

Target gene	TNF reporter robust z-score
RBBP6 (RB binding protein 6, ubiquitin ligase)	-0.75
RBBP6 (RB binding protein 6, ubiquitin ligase)	-1.25
RBBP6 (RB binding protein 6, ubiquitin ligase)	-2.25 (active)
RBBP6 (RB binding protein 6, ubiquitin ligase)	-0.26
KAT6B (lysine acetyltransferase 6B)	0.22
KAT6B (lysine acetyltransferase 6B)	1.22
KAT6B (lysine acetyltransferase 6B)	0.73
KAT6B (lysine acetyltransferase 6B)	0.9
ACTA1 (actin alpha 1, skeletal muscle)	-0.8
ACTA1 (actin alpha 1, skeletal muscle)	0.19
ACTA1 (actin alpha 1, skeletal muscle)	-0.04
ACTA1 (actin alpha 1, skeletal muscle)	1.14
PBX1 (PBX homeobox 1)	0.18
PBX1 (PBX homeobox 1)	1.38
PBX1 (PBX homeobox 1)	2.68
PBX1 (PBX homeobox 1)	-0.94
ACRBP (acrosin binding protein)	-0.95
ACRBP (acrosin binding protein)	-0.24
ACRBP (acrosin binding protein)	-0.72
ACRBP (acrosin binding protein)	1.04
CHMP2A (charged multivesicular body protein 2A)	-1.25
CHMP2A (charged multivesicular body protein 2A)	-0.91
CHMP2A (charged multivesicular body protein 2A)	-1.78 (active)
CHMP2A (charged multivesicular body protein 2A)	-1.14
NEFL (neurofilament light chain)	-0.96
NEFL (neurofilament light chain)	-0.95
NEFL (neurofilament light chain)	-0.78
NEFL (neurofilament light chain)	-0.56
LYZL1 (lysozyme like 1)	-1.98 (active)
LYZL1 (lysozyme like 1)	-1.7 (active)
LYZL1 (lysozyme like 1)	-1.18
LYZL1 (lysozyme like 1)	-0.52
AGPAT4 (1-acylglycerol-3-phosphate O-acyltransferase 4)	-0.11
AGPAT4 (1-acylglycerol-3-phosphate O-acyltransferase 4)	-0.46
AGPAT4 (1-acylglycerol-3-phosphate O-acyltransferase 4)	0.26
AGPAT4 (1-acylglycerol-3-phosphate O-acyltransferase 4)	1.03
LMNA (lamin A/C)	-0.8
LMNA (lamin A/C)	-0.17
LMNA (lamin A/C)	0.16
LMNA (lamin A/C)	0.31

The list goes on, starting with the last 13 of the part before.
Target gene	TNF reporter robust z-score
NEFL (neurofilament light chain)	-0.56
LYZL1 (lysozyme like 1)	-1.98 (active)
LYZL1 (lysozyme like 1)	-1.7 (active)
LYZL1 (lysozyme like 1)	-1.18
LYZL1 (lysozyme like 1)	-0.52
AGPAT4 (1-acylglycerol-3-phosphate O-acyltransferase 4)	-0.11
AGPAT4 (1-acylglycerol-3-phosphate O-acyltransferase 4)	-0.46
AGPAT4 (1-acylglycerol-3-phosphate O-acyltransferase 4)	0.26
AGPAT4 (1-acylglycerol-3-phosphate O-acyltransferase 4)	1.03
LMNA (lamin A/C)	-0.8
LMNA (lamin A/C)	-0.17
LMNA (lamin A/C)	0.16
LMNA (lamin A/C)	0.31
LOC728919 (retired record)	1.98
LOC728919 (retired record)	1.85
LOC728919 (retired record)	3 (active)
LOC728919 (retired record)	1.21
ATG2A (autophagy related 2A)	-0.75
ATG2A (autophagy related 2A)	-0.07
ATG2A (autophagy related 2A)	-0.56
ATG2A (autophagy related 2A)	0.51
USP43 (ubiquitin specific peptidase 43)	0.84
USP43 (ubiquitin specific peptidase 43)	0.51
USP43 (ubiquitin specific peptidase 43)	-0.39
USP43 (ubiquitin specific peptidase 43)	-0.49
STK32B (serine/threonine kinase 32B)	-0.05
STK32B (serine/threonine kinase 32B)	0.85
STK32B (serine/threonine kinase 32B)	0.96
STK32B (serine/threonine kinase 32B)	1.15
TAS2R13 (taste 2 receptor member 13)	0.32
TAS2R13 (taste 2 receptor member 13)	1.23
TAS2R13 (taste 2 receptor member 13)	0.97
TAS2R13 (taste 2 receptor member 13)	1.27
TFAP2B (transcription factor AP-2 beta)	-0.5
TFAP2B (transcription factor AP-2 beta)	0.09
TFAP2B (transcription factor AP-2 beta)	-0.24
TFAP2B (transcription factor AP-2 beta)	0.12
MRPS15 (mitochondrial ribosomal protein S15)	1.8
MRPS15 (mitochondrial ribosomal protein S15)	0.95
MRPS15 (mitochondrial ribosomal protein S15)	3.08 (active)
MRPS15 (mitochondrial ribosomal protein S15)	1.21
ADAM20 (ADAM metallopeptidase domain 20)	-0.67
ADAM20 (ADAM metallopeptidase domain 20)	0.37
ADAM20 (ADAM metallopeptidase domain 20)	0.93
ADAM20 (ADAM metallopeptidase domain 20)	0.41
HNRNPU (heterogeneous nuclear ribonucleoprotein U)	0.54
HNRNPU (heterogeneous nuclear ribonucleoprotein U)	1.23
HNRNPU (heterogeneous nuclear ribonucleoprotein U)	0.75
HNRNPU (heterogeneous nuclear ribonucleoprotein U)	0.5
AP3S2 (adaptor related protein complex 3 subunit sigma 2)	0.25
AP3S2 (adaptor related protein complex 3 subunit sigma 2)	0.81
AP3S2 (adaptor related protein complex 3 subunit sigma 2)	0.07
AP3S2 (adaptor related protein complex 3 subunit sigma 2)	0.21
CRYBB3 (crystallin beta B3)	0.48
CRYBB3 (crystallin beta B3)	0.32
CRYBB3 (crystallin beta B3)	0.24
CRYBB3 (crystallin beta B3)	2.21
TSACC (TSSK6 activating cochaperone)	2.01
TSACC (TSSK6 activating cochaperone)	0.33
TSACC (TSSK6 activating cochaperone)	1.01
TSACC (TSSK6 activating cochaperone)	-1.01
PLSCR1 (phospholipid scramblase 1)	-1.23
PLSCR1 (phospholipid scramblase 1)	-0.76
PLSCR1 (phospholipid scramblase 1)	-1.38
PLSCR1 (phospholipid scramblase 1)	-0.39
CEP89 (centrosomal protein 89)	-1.06
CEP89 (centrosomal protein 89)	-0.64
CEP89 (centrosomal protein 89)	-1.35
CEP89 (centrosomal protein 89)	-1.82 (active)
PALD1 (phosphatase domain containing paladin 1)	-1.08
PALD1 (phosphatase domain containing paladin 1)	-0.61
PALD1 (phosphatase domain containing paladin 1)	-0.91
PALD1 (phosphatase domain containing paladin 1)	-0.65
DDX53 (DEAD-box helicase 53)	0.69
DDX53 (DEAD-box helicase 53)	0.84
DDX53 (DEAD-box helicase 53)	-0.11
DDX53 (DEAD-box helicase 53)	0.83
ATXN7 (ataxin 7)	1.14
ATXN7 (ataxin 7)	2.31
ATXN7 (ataxin 7)	1.52
ATXN7 (ataxin 7)	1.81
EFEMP1 (EGF-like fibulin extracellular matrix protein 1)	-0.34
EFEMP1 (EGF-like fibulin extracellular matrix protein 1)	1.67
EFEMP1 (EGF-like fibulin extracellular matrix protein 1)	0.87
EFEMP1 (EGF-like fibulin extracellular matrix protein 1)	0.96
